Results from US20180055768A1.
No constants are given. Whether binding was seen depends on the method and setting. In cells and extracts the contact can be indirect. Some results given as binding are weak or reduced against the parent protein; the word gives no strength. For some assays here: Sequences can lack the tags named with a protein.

The chains behind the UniProt entries cited, without tags or fusion partners. Where a name states a change or a piece, a line headed by the entry shows the natural chain unless it says otherwise.
UniProt Q99816: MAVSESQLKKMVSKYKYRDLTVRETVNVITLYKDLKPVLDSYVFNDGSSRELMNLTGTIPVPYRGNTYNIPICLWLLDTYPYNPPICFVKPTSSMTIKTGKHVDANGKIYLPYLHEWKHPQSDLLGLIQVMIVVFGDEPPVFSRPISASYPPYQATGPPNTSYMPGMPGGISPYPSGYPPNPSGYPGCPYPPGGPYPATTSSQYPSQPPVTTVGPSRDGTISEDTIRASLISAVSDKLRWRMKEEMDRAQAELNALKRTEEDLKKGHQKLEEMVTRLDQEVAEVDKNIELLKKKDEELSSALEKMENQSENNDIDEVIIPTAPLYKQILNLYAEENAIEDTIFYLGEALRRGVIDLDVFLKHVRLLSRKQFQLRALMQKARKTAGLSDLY
UniProt O00308: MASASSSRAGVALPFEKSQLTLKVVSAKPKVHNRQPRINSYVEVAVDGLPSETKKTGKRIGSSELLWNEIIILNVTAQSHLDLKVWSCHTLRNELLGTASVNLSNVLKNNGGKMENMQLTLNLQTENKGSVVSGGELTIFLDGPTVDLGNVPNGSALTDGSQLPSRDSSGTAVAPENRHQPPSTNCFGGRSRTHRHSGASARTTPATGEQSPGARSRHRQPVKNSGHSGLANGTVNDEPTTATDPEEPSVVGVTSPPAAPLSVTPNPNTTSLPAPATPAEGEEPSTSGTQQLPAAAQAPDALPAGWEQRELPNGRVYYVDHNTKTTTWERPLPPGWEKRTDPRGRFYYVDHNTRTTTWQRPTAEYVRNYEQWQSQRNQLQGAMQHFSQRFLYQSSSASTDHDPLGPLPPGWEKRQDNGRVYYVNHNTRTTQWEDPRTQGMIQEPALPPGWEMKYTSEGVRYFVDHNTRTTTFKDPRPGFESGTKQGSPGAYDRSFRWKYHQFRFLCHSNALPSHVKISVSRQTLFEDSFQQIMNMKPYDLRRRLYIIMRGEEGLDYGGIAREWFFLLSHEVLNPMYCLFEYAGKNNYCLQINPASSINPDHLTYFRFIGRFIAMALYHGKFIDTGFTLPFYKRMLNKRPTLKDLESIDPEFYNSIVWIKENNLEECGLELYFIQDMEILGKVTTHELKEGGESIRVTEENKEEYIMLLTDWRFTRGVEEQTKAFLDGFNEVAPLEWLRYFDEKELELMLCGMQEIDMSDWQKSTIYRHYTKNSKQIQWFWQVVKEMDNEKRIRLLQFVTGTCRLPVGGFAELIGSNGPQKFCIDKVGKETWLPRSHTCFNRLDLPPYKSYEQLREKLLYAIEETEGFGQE

How the values were obtained:
[1] = target: ARRDC1 (constructs of FIG. 9, plasmids not given) (Homo sapiens) (UniProt Q8N5I2); assay: anti-FLAG co-immunoprecipitation from 293T cells, Western blot (FIG. 9)
[2] = target: HA-tagged TSG101 (wild type) (Homo sapiens) (UniProt Q99816); assay: anti-FLAG co-immunoprecipitation from 293T cells, Western blot (FIG. 1C)
[3] = target: HA-tagged TSG101 (wild type) (Homo sapiens) (UniProt Q99816); assay: anti-FLAG co-immunoprecipitation from 293T cells, Western blot
[4] = target: HA-tagged TSG101 (wild type) (Homo sapiens) (UniProt Q99816); assay: co-immunoprecipitation and yeast two-hybrid, as summed up in the discussion
GFP-tagged WWP2 = GFP-tagged WWP2 (UniProt O00308); assay: anti-HA co-immunoprecipitation from 293T cells, Western blot (FIG. 5B)

B1: ARRDC1 (constructs of FIG. 9, plasmids not specified in the text) (protein)
chain: MGRVQLFEISLSHGRVVYSPGEPLAGTVRVRLGAPLPFRAIRVTCIGSCGVSNKANDTAWVVEEGYFNSSLSLADKGSLPAGEHSFPFQFLLPATAPTSFEGPFGKIVHQVRAAIHTPRFSKDHKCSLVFYILSPLNLNSIPDIEQPNVASATKKFSYKLVKTGSVVLTASTDLRGYVVGQALQLHADVENQSGKDTSPVVASLLQKVSYKAKRWIHDVRTIAEVEGAGVKAWRRAQWHEQILVPALPQSALPGCSLIHIDYYLQVSLKAPEATVTLPVFIGNIAVNHAPVSPRPGLGLPPGAPPLVVPSAPPQEEAEAEAAAGGPHFLDPVFLSTKSHSQRQPLLATLSSVPGAPEPCPQDGSPASHPLHPPLCISTGATVPYFAEGSGGPVPTTSTLILPPEYSSWGYPYEAPPSYEQSCGGVEPSLTPES
- binding [1]: binds

B2: FLAG-tagged wild-type (wt) ARRDC1 (protein, not shown: small tags and cut ends)
chain: B1 chain
- binding [2]: binds
- binding [3]: binds
- binding [4]: binds

B3: HA-tagged wt ARRDC1 (protein, not shown: small tags and cut ends)
chain: B1 chain
- binding (GFP-tagged WWP2): binds
